The source of these data is publication PMC5442318, “Hundreds of dual-stage antimalarial molecules discovered by a functional gametocyte screen” (Nature Communications, 2017).

One data set deals with HepG2 cells. The experiment in a line: HepG2 cytotoxicity assay. Type of data set: cell-based. Particulars: HepG2 TOX50 vs Pf FGAA IC50. The procedure, abridged: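 Steps: equilibrate plates and detection reagent at room temperature (30 min); dispense CellTiter-Glo; allow 10 min at room temperature; record luminescence.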
For the compound `Cl.c1ccc2c(NCCCCCCCCCNc3ccnc4ccccc34)ccnc2c1` [TCMDC-137750], the Selectivity ratio amounted to 1.77.
Same read-out and setting: in the case of `Cl.c1ccc2c(NCCCCCCCCNc3ccnc4ccccc34)ccnc2c1` [TCMDC-137751] it was 1.13; in that of `CC(CO)(CO)NCc1cc2c3ccccc3c(CNC(C)(CO)CO)cc2c2ccccc12.CS(=O)(=O)O` [TCMDC-137752], 1.66; in that of `CS(=O)(=O)O.CSc1ccc2ccccc2c1CCNCCCCNCCc1c(SC)ccc2ccccc12` [TCMDC-137763], 1.80.
On to `CC1CCCCN1CCCNc1nc(NCc2ccccc2)c2ccccc2n1` (centres unmarked) [TCMDC-137771], for which the Selectivity ratio was 2.02.
For `Clc1ccc(Nc2nc3ccc(Cl)cc3nc2Nc2ccc(Cl)cc2)cc1` [TCMDC-137772], the Selectivity ratio was 4.11.
The same measure, in the same setting: next, `COc1cc2ccccc2c(CNCCCCCCNCc2c(OC)c(OC)cc3ccccc23)c1OC.CS(=O)(=O)O` [TCMDC-137795]: 6.95; `COc1ccc2ccc(OC)c(CNCCCCCCNCc3c(OC)ccc4ccc(OC)cc34)c2c1.CS(=O)(=O)O` [TCMDC-137796]: 2.73.
Same read-out and setting: next, `COc1ccc2cc(CNCCCCCCNCc3ccc4cc(OC)ccc4c3)ccc2c1.CS(=O)(=O)O` [TCMDC-137797]: 2.64; `Clc1nc(Cl)c2c(ccn2Cc2ccccc2)n1` [TCMDC-137801]: over 68.49; `c1cc(C2=N[C@H]3CCCC[C@@H]3N2)ccc1OCCCOc1ccc(C2=N[C@@H]3CCCC[C@H]3N2)cc1` [TCMDC-137803]: 3.31.
As for `Nc1nc(N)c2c(ccc3c2ccn3Cc2cccc(F)c2)n1` [TCMDC-137810], the Selectivity ratio is reported as 0.0444.
Regarding `Nc1nc(N)c2c(ccc3c2ccn3Cc2ccc(-c3ccccc3)cc2)n1` [TCMDC-137813], the Selectivity ratio came out at 0.57.
For `CS(=O)(=O)O.FC(F)(F)COc1ccc2ccccc2c1CNCCCCCCNCc1c(OCC(F)(F)F)ccc2ccccc12` [TCMDC-137816], the Selectivity ratio is 1.70.
`N#Cc1ccc(Cn2ccc3c4c(N)nc(N)nc4ccc32)cc1` [TCMDC-137820]: the Selectivity ratio was under 0.0016.
Regarding `CCCCSc1c(CNCCCCCCNCc2ccc3ccccc3c2SCCCC)ccc2ccccc12.CS(=O)(=O)O` [TCMDC-137825], the Selectivity ratio was 2.85.
Consider `COc1c(OC)c(OC)c2ccccc2c1CNCCCCCCNCc1c(OC)c(OC)c(OC)c2ccccc12.Cl` [TCMDC-137827], for which the Selectivity ratio was determined as 1.77.
The same measure, in the same setting: next, `C#CCCOc1ccc2ccccc2c1CNCCCCCCNCc1c(OCCC#C)ccc2ccccc12` [TCMDC-137832]: 5.19; `COc1c(CNCCCCCCNCc2c(OC)c(OC)c3ccccc3c2OC)c(OC)c2ccccc2c1OC.CS(=O)(=O)O` [TCMDC-137837]: 1.20.
Still for that read-out and setting: in the case of `C#CCOc1ccc2ccccc2c1CNCCCCCCNCc1c(OCC#C)ccc2ccccc12.CS(=O)(=O)O` [TCMDC-137838] it was 2.78.
Regarding `Nc1nc(N)c2c(ccc3[nH]c(-c4ccccc4Cl)nc32)n1` [TCMDC-137840], the Selectivity ratio is recorded as 0.52.
For the compound `COc1cc2ccccc2c(OC)c1CCNCCCCNCCc1c(OC)cc2ccccc2c1OC.CS(=O)(=O)O` [TCMDC-137842], the Selectivity ratio was 3.36.
For the compound `CCCCOc1cc(OC)c2ccccc2c1CCNCCCCNCCc1c(OCCCC)cc(OC)c2ccccc12.CS(=O)(=O)O` [TCMDC-137845], the Selectivity ratio turned out to be 2.59.
Same read-out and setting: in the case of `CCCCOc1c(CCNCCCCNCCc2cc(OC)c3ccccc3c2OCCCC)cc(OC)c2ccccc12.CS(=O)(=O)O` [TCMDC-137848] it was 3.22; in that of `CS(=O)(=O)O.FC(F)(F)COc1ccc(CNCCCCCCNCc2ccc(OCC(F)(F)F)c3ccccc23)c2ccccc12` [TCMDC-137853], 3.93.
Same read-out and setting: in the case of `COc1c(CCNCCCCNCCc2cc(Cl)c3ccccc3c2OC)cc(Cl)c2ccccc12.CS(=O)(=O)O` [TCMDC-137869] it was 5.33; in that of `CN(CCCNCc1ccc2ccccc2c1)CCCNCc1ccc2ccccc2c1.Cl` [TCMDC-137908], 57.08; in that of `COc1ccc2ccccc2c1CNCCCCCCNCc1c(OC)ccc2ccccc12.Cl` [TCMDC-137915], 5.99.
As for `COc1ccc2c(c1)CC(C)(C)NC2CCCCCCCCC1NC(C)(C)Cc2cc(OC)ccc21.O=C(O)C(=O)O` (centres unmarked) [TCMDC-137935], the Selectivity ratio is on record as 3.82.
As for `CCOc1cc(CNCCCCCCNCc2cc(OCC)c(OCC)c3ccccc23)c2ccccc2c1OCC.CS(=O)(=O)O` [TCMDC-137939], the Selectivity ratio came to 1.12.
`CCOc1cc2ccccc2cc1CNCCCCCCNCc1cc2ccccc2cc1OCC.CS(=O)(=O)O` [TCMDC-137940]: the Selectivity ratio turned out to be 4.71.
As for `COc1cc2ccccc2cc1CCNCCCCNCCc1cc2ccccc2cc1OC.CS(=O)(=O)O` [TCMDC-137944], the Selectivity ratio was 2.69.
Consider `COc1cc2c(OC)cccc2cc1CNCCCCCCNCc1cc2cccc(OC)c2cc1OC.CS(=O)(=O)O` [TCMDC-137945], for which the Selectivity ratio came out at 2.69.
For the compound `CCCOc1c(CCNCCCCNCCc2ccc3ccccc3c2OCCC)ccc2ccccc12.CS(=O)(=O)O` [TCMDC-137950], the Selectivity ratio turned out to be 2.69.
On to `CCCOc1ccc(CCNCCCCNCCc2ccc(OCCC)c3ccccc23)c2ccccc12.CS(=O)(=O)O` [TCMDC-137952], for which the Selectivity ratio came to 3.53.
As for `COc1ccc2c(OC)c(CNCCCCCCNCc3ccc4cc(OC)ccc4c3OC)ccc2c1.CS(=O)(=O)O` [TCMDC-137953], the Selectivity ratio worked out at 2.12.
As for `COc1c(CNCCCCCCNCc2cc(Cl)c3ccccc3c2OC)cc(Cl)c2ccccc12.CS(=O)(=O)O` [TCMDC-137958], the Selectivity ratio was determined as 3.92.
Take `COc1ccc(CCNCCCCNCCc2ccc(OC)c3ccccc23)c2ccccc12.CS(=O)(=O)O` [TCMDC-137961]: the Selectivity ratio is 4.44.
Take `CCCCCCOc1ccc2ccccc2c1CNCCCCCCNCc1c(OCCCCCC)ccc2ccccc12.CS(=O)(=O)O` [TCMDC-137963]: the Selectivity ratio is reported as 1.60.
For `CC(C)Oc1ccc2ccccc2c1CNCCCCCCNCc1c(OC(C)C)ccc2ccccc12.CS(=O)(=O)O` [TCMDC-137965], the Selectivity ratio is recorded as 2.01.
Turning to `CCCOc1ccc2ccccc2c1CNCCCCCCNCc1c(OCCC)ccc2ccccc12.CS(=O)(=O)O` [TCMDC-137966], the Selectivity ratio amounted to 1.93.
Regarding `CC(C)COc1ccc2ccccc2c1CNCCCCCCNCc1c(OCC(C)C)ccc2ccccc12.CS(=O)(=O)O` [TCMDC-137972], the Selectivity ratio is reported as 2.69.
Still for that read-out and setting: next, `CCCCOc1c(CNCCCCCCNCc2ccc3ccccc3c2OCCCC)ccc2ccccc12.CS(=O)(=O)O` [TCMDC-137975]: 1.48; `COc1ccccc1-c1nc2c(ccc3nc(N)nc(N)c32)[nH]1` [TCMDC-137976]: 2.53; `CC(C)(C)c1ccc(-c2cc3c(ccc4nc(N)nc(N)c43)[nH]2)cc1` [TCMDC-137977]: 2.42.
Still for that read-out and setting: in the case of `CC(C)(C)c1ccc(-c2nc3c(ccc4nc(N)nc(N)c43)[nH]2)cc1.Cl` [TCMDC-137984] it was 8.21.
The same measure, in the same setting: next, `CCCN(CCC)CCCN(CCCN(CCC)CCC)c1cc(C)nc(Nc2ccc3cc(Br)ccc3c2)n1.Cl` [TCMDC-138006]: 3.48; `CCCCCCCCN1CCN(CCCCCCNc2c3ccccc3nc3ccccc23)CC1.Cl` [TCMDC-138015]: 5.26; `Cl.Clc1ccc(CNCCCCCCCNCc2ccc(Cl)c(Cl)c2)cc1Cl` [TCMDC-138075]: 6.57.
`COc1cc2nc(N3CCC(CNC(=O)c4ccc(-c5ccc(-c6noc(C)n6)cc5C)cc4)CC3)nc(N)c2cc1OC` [TCMDC-138155]: the Selectivity ratio is 4.54.
With `CC(=O)c1ccc2nc[nH]c(=O)c2c1` [TCMDC-138172], the Selectivity ratio is given as 6.38.
For the compound `COc1cc2nc(NCc3cccc(CNC(=O)c4ccc(-c5ccc(C(C)=O)cc5)cc4)c3)nc(N)c2cc1OC.O=C(O)C(F)(F)F` [TCMDC-138177], the Selectivity ratio is 1.44.
Regarding `COc1cc2nc(N3CCN(C(=O)c4c(Cl)nsc4-c4ccccc4Cl)CC3)nc(N)c2cc1OC.O=C(O)C(F)(F)F` [TCMDC-138186], the Selectivity ratio came out at 5.94.
Regarding `Cc1ccc(C(=O)Nc2ccc(Nc3ccnc4cc(-c5ccccn5)ccc34)cc2O)cc1.Cl` [TCMDC-138205], the Selectivity ratio was found to be 2.35.
For the compound `COc1ccc(N2CCN(CCCCNCc3ccc(NC(=O)c4cc(Cl)cc(Cl)c4)cc3)CC2)c(OC)c1` [TCMDC-138226], the Selectivity ratio is given as 1.42.
Consider `COc1cc2nc(Nc3ccc4c(ccn4Cc4ccccc4)c3)nc(Nc3ccc4c(ccn4Cc4ccccc4)c3)c2cc1OC` [TCMDC-138237], for which the Selectivity ratio turned out to be 8.95.
In the case of `CN(C)CCNCc1ccc(-c2ccc3c(Nc4ccc(Cl)cc4F)ccnc3c2)o1` [TCMDC-138391], the Selectivity ratio is on record as 0.52.
On to `Fc1cc(Cl)ccc1Nc1ccnc2cc(-c3ccc(CN4CCOCC4)o3)ccc12` [TCMDC-138393], for which the Selectivity ratio came out at 8.82.
As to `Cl.Fc1cc(Cl)ccc1Nc1ccnc2cc(-c3ccc(CN4CCNCC4)o3)ccc12` [TCMDC-138394], the Selectivity ratio is 6.32.
The same measure, in the same setting: in the case of `CN(C)CCNCc1ccc(-c2ccc3c(Nc4ccc(Oc5ccccc5)cc4)ccnc3c2)o1` [TCMDC-138399] it was 3.66; in that of `CN(C)CCN(C)Cc1cccc(-c2ccc3c(Nc4ccc(F)cc4Cl)ccnc3c2)c1` [TCMDC-138416], 0.87; in that of `CN(C)CCN(C)Cc1ccc(-c2ccc3c(Nc4ccc(Oc5ccccn5)cc4)ccnc3c2)o1` [TCMDC-138426], 2.62.
`CN(C)CCNCc1cccc(-c2ccc3c(Nc4ccc(Oc5ccccn5)cc4)ccnc3c2)c1` [TCMDC-138493]: the Selectivity ratio was 4.88.
As for `COc1cc2nc(N3CCC(CCCC4CCNCC4)CC3)nc(NCc3ccccn3)c2cc1OC.O=C(O)C(F)(F)F` [TCMDC-138494], the Selectivity ratio was 2.70.

The same data set, now with this note: HepG2 Tox50 vs Pf FGAA IC50.
For `N#Cc1ccc(Cn2ccc3c4c(N)nc(N)nc4ccc32)cc1` [TCMDC-137820], the “selectivity ratio (selectivity index)” value is under 10.
